Here are results for one molecule from article doi:10.64898/2025.12.11.692796.

Amino acid sequences for entries named in this document (tags omitted).
UniProt Q14191: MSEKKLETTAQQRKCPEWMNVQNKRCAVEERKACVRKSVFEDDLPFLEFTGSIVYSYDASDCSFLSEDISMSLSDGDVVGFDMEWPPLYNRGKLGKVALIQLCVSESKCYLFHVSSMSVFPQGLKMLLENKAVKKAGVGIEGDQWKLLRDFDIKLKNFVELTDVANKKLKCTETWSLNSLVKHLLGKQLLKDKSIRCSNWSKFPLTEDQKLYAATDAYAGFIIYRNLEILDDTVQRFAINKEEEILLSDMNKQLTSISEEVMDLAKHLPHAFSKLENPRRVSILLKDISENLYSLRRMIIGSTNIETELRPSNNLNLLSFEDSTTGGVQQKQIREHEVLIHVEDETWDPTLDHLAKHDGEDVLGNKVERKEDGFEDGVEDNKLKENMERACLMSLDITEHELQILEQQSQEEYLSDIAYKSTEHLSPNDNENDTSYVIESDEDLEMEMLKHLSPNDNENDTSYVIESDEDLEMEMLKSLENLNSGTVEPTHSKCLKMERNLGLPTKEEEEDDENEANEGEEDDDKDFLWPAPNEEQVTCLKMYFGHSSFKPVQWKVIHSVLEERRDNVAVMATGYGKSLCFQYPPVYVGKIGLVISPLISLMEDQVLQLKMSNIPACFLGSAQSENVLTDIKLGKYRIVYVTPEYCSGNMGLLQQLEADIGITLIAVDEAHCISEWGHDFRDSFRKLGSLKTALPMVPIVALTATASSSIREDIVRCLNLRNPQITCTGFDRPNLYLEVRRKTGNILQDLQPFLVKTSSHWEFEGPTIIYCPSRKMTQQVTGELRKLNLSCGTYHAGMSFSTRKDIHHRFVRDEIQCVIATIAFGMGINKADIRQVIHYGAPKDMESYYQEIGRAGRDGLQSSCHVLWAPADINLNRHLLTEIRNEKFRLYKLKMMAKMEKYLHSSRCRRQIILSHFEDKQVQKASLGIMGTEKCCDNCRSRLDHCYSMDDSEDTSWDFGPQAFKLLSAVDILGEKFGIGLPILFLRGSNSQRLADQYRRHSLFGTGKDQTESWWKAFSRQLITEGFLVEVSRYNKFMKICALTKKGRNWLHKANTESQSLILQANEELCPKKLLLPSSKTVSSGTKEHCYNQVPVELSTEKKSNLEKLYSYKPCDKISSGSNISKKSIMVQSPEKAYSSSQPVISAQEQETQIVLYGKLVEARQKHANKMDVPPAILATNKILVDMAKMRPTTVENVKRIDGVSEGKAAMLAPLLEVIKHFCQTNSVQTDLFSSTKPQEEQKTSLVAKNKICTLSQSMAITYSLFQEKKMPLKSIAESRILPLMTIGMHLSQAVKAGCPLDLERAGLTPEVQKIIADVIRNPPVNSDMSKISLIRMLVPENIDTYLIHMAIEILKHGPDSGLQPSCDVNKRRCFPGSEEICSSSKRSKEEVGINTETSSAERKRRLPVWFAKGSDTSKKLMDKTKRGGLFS

No constants are given. Whether binding was seen depends on the method and setting. Binding seen in cells or lysates may run through a third protein. Some entries that bind do so weakly or less than the wild type.

The target of the experiment is FLAG-tagged WRN (Werner RECQ helicase-exonuclease) (human) (UniProt Q14191). As to the kind of experiment: co-IP.

B1: U2AF35, a core subunit of the U2 auxiliary factor (U2AF) complex (protein, UniProt Q01081-1 1-240)
chain: MAEYLASIFGTEKDKVNCSFYFKIGACRHGDRCSRLHNKPTFSQTIALLNIYRNPQNSSQSADGLRCAVSDVEMQEHYDEFFEEVFTEMEEKYGEVEEMNVCDNLGDHLVGNVYVKFRREEDAEKAVIDLNNRWFNGQPIHAELSPVTDFREACCRQYEMGECTRGGFCNFMHLKPISRELRRELYGRRRKKHRSRSRSRERRSRSRDRGRGGGGGGGGGGGGRERDRRRSRDRERSGRF
In the case of B1, the binding entry is “binds”.
